Source: article PMC9916574
Results are given in words; binding and its absence hold for the method and conditions named. In cells and extracts the contact can be indirect. Some results given as binding are weak or reduced against the parent protein; the word gives no strength. Sequences can lack the tags named with a protein.

Molecular target: T1, p53 binding domain of Retinoblastoma binding protein 6 (RBBP6), polyhistidine-tagged (human) (UniProt Q7Z6E9)
T1 sequence: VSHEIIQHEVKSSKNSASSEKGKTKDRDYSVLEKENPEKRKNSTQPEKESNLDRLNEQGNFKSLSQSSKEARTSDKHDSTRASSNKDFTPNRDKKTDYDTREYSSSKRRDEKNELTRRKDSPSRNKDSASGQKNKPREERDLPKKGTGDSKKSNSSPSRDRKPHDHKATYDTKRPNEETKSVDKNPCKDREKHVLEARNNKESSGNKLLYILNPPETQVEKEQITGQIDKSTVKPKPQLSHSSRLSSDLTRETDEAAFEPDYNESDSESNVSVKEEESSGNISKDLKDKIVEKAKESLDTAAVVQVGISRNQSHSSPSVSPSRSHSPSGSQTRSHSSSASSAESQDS
Assay: co-IP; purified recombinant RBBP6-p53BD added to HEK293T cell lysate, 3 h at 4°C; anti-polyhistidine antibody, protein A agarose; beads washed 5 times with PBS; Western blot with anti-p53; only the target purified

endogenous p53 (from UniProt P04637 1-393)
binding: binds
